# Experimental data: the supplement of paper PMC11348887
# Structures can show the parent of a compound that is named as a salt. The list shows a part of the results. Small differences around the control level are noise. Where a SMILES comes first, the peptide text is derived from it. [ ]: non-standard residue; d: D form. The star is where a group is joined. Dolaproine = CO[C@@H]([C@@H]1CCCN1)[C@@H](C)C(=O)O; Dil = CC[C@H](C)[C@H](NC)[C@@H](CC(=O)O)OC; X2 = C[C@@H](N*)[C@@H](O)c1ccccc1; NMeV = CN[C@H](C(=O)O)C(C)C
# Tested on: hPSC-derived cortical neurons (WA09)
# Experiment: KCl-induced FOS+/EGR-1+ double-positive nuclei fraction z-score (KCl minus unstimulated); higher = stronger activity-induced IEG response
# Details: 5 µM; treatment: days 7-14 after plating, readout day 21
row,Structure (SMILES),KCl-induced FOS+/EGR-1+ double-positive nuclei fraction z-score
1,CC(=O)OC12COC1CC(O)C1(C)C(=O)C(O)C3=C(C)C(O)CC(O)(C(OC(=O)c4ccccc4)C21)C3(C)C (stereo unspecified) [10-Deacetylbaccatin-III],-0.622
2,COc1ccc(CN2CCNCC2)c(OC)c1OC [Trimetazidine dihydrochloride],2.04
3,CC(=O)OC(C)(C)/C=C/C(=O)[C@](C)(O)[C@H]1[C@H](O)C[C@@]2(C)[C@@H]3CC=C4[C@H](C[C@H](O)C(=O)C4(C)C)[C@]3(C)C(=O)C[C@]12C [Cucurbitacin B],-0.254
4,CC[C@H](C)[C@@H]([C@@H](CC(=O)N1CCC[C@H]1[C@H](OC)[C@@H](C)C(=O)N[C@H](C)[C@@H](O)c1ccccc1)OC)N(C)C(=O)[C@@H](NC(=O)[C@@H](NC)C(C)C)C(C)C [Monomethyl auristatin E (MMAE)] (H-[NMeV]V[Dil][Dolaproine]-X2),-1.08
5,N=C(N)NN [Aminoguanidine hydrochloride],1.03
6,Nc1nc(N)nc(NC2CC2)n1 [Cyromazine],1.14
